Data: patent US6605424B1, “Method of detecting inhibitors of agonist-specific desensitization” (Duke University, priority 1989, dated 2003)
At least one compound was matched to its structure with a doubt left. Some entries share one result that the patent states for a list of compounds. Residues, ends and D or L forms follow the SMILES beside them. No end group written: not given here.

Target: T1, βAR kinase (Bos taurus, UniProt P21146)
T1 construct: βAR kinase was purified from bovine cerebral cortex; from tissue; host or cells: bovine cerebral cortex
T1 sequence (P21146 1-689): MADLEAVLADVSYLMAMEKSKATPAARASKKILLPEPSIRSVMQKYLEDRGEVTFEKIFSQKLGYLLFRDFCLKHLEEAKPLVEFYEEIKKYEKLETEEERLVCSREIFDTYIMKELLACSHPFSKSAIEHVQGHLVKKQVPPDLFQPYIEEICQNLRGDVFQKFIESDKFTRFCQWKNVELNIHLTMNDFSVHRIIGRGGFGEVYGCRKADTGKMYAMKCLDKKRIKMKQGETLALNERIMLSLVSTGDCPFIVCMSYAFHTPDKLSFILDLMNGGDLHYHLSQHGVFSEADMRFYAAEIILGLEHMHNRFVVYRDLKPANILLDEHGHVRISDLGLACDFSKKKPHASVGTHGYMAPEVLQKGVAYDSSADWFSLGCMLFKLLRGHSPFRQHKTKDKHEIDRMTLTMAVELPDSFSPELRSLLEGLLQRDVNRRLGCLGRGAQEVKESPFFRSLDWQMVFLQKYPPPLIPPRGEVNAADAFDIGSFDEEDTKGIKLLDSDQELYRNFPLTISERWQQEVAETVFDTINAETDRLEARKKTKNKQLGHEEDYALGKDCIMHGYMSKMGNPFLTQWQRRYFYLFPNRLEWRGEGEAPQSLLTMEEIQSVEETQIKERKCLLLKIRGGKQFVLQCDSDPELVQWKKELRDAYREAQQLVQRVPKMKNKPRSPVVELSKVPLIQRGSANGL
Assay: Inhibition of β2AR phosphorylation by βAR kinase by synthetic peptides (Example III)
Assay type: biochemical, bovine
Conditions: hamster β2AR peptides, ND = no significant inhibition at ˜500 μM
Method: FIG. 13. Inhibition of β2AR phosphorylation by synthetic peptides. Reconstituted β2AR (˜0.4 pmol) was incubated for 30 min at 30° with purified βAR kinase (˜30 ng) in the presence of 50 mM Tris-HCl, pH 7.5, 2 mM EDTA, 10 mM NaCl, 5 mM MgCl2, 5 mM sodium phosphate, 50 μM (−)-isoproterenol and 0.10 mM [γ^32P]ATP (2.0 cpm/fmol). Synthetic β2AR peptides were varied from 0 to 1 mM and included CI (Δ), CII (▴), CIII-2 (◯) and CT-1 (●). Reactions were stopped by the addition of […]. ^32P-labeled receptor was determined by cutting and counting the dried gel following autoradiography.
The β2-adrenergic receptor from hamster lung was purified to apparent homogeneity by sequential affinity and high performance liquid chromatography as described (Benovic et al (1984) Biochemistry 23:4510-4518). The purified receptor was reinserted into phosphatidylcholine vesicles as previously described (Cerione et al (1983) Nature 306:562-566). The protein-lipid pellets were resuspended in 20 mM Tris-HCl, pH 7.2, 2 mM EDTA and used as a substrate for the βAR kinase.
βAR kinase was purified from bovine cerebral cortex by modification of a previously described procedure (Benovic et al (1987) J. Biol. Chem. 262:9026-9032). Briefly, 250 g of bovine cortex was homogenized and the resulting high speed supernatant fraction was precipitated with 13-26% ammonium sulfate. This material was initially chromatographed on an Ultrogel AcA34 column equilibrated with 5 mM Tris-HCl, pH 7.5, 2 mM EDTA, 5 μg/ml leupeptin, 5 μg/ml pepstatin, 15 μg/ml benzamidine, 0.2 mM phenylmethyl sulfonyl fluoride (buffer A). The peak activity was diluted 1:1 with buffer A containing 0.02% triton X-100 and applied to a DEAE Sephacel column. Elution was accomplished with a 0-80 mM NaCl gradient in buffer A containing triton X-100. The peak activity was then applied directly to a CM Fractogel column and eluted with a 0-100 mM NaCl gradient in buffer A containing triton X-100. The purified kinase was stored at 4° C.
The inhibition of substrate phosphorylation by βAR kinase in the presence of synthetic peptides was assayed as follows. Reconstituted βAR (0.2-1 pmol/inclubation) was incubated with βAR kinase (10-30 ng) in a buffer containing 50 mM Tris-HCl, pH 7.5, 2 mM EDTA, 10 mM NaCl, 5 mM MgCl2, 5 mM sodium phosphate, 50 μM (−)-isoproterenol, 0.10 mM [γ-^32P]ATP (1-3 cpm/fmol) at 30° C. for 30 min. Synthetic β2AR peptides were varied in concentration from 0 to 2 mM. Reactions were quenched by the addition of SDS sample buffer followed by gel electrophoresis. In some experiments urea treated rod outer segments (Wilden et al (1982) Biochemistry 21:3014-3022; Shichi et al (1978) J. Biol. Chem. 253:7040-7046) were used as the substrate for βAR kinase. To further define the specificity of the peptide inhibition, phosvitin, casein (see Example I) and the synthetic peptides CT-2 and CT-3 were used as substrates for βAR kinase.
SDS polyacrylamide gel electrophoresis was performed by the method of Laemmli (Nature (1970) 227:[…]) using 10 or 15% homogeneous slab gels. SDS sample buffer contained 8% SDS, 10% glycerol, 5% β-mercaptoethanol, 25 mM Tris-HCl, pH 6.5 and 0.003% bromphenol blue. SDS urea polyacrylamide gel electrophoresis was carried out using 6.5 M urea, 0.1% SDS, 100 mM H3PO4, pH 6.8 with Tris-HCl and 9% acrylamide (Swank et al (1971) Anal. Biochem. 39:462). SDS urea sample buffer contained 1% SDS, 8M urea, 10 mM H3PO4, pH 6.8 with Tris-HCl, 1% β-mercaptoethanol and 0.003% bromphenol blue.

Q: How did the IC50 turn out when `CC[C@H](C)[C@H](NC(=O)[C@H](C)NC(=O)[C@H](CCCCN)NC(=O)[C@H](CCC(N)=O)NC(=O)[C@H](Cc1c[nH]cn1)NC(=O)[C@@H](N)[C@@H](C)O)C(=O)N[C@@H](CC(=O)O)C(=O)N[C@@H](CS)C(=O)N[C@@H](Cc1ccc(O)cc1)C(=O)N[C@@H](Cc1c[nH]cn1)C(=O)N[C@@H](CCCCN)C(=O)N[C@@H](CCC(=O)O)C(=O)N[C@H](C(=O)N[C@@H](CS)C(=O)O)[C@@H](C)O` [EII (177-190)] (H-THQKAIDCYHKETC-OH; N-terminus and C-terminus assumed) was run?
A: > 500 µM

Q: With QELLCLRRSSSKAYGNGYS [CT-1 (337-355)] as the molecule, how does the IC50 read?
A: 320 µM

Q: What about the IC50 (listed as CT-1) of the same molecule?
A: 70 to 320 µM

Q: “QGTVPSLSLDSQGRNCSTNDSPL [CT-3 (396-418)]” was tested. Which IC50 did it give?
A: > 500 µM

Q: For SHVPDHDVTEERDEAW [NT (17-32)], which IC50 is on record?
A: > 500 µM
